In this experiment the target is T1, HASt-C21orf70 (UniProt Q9NSI2).
T1 sequence: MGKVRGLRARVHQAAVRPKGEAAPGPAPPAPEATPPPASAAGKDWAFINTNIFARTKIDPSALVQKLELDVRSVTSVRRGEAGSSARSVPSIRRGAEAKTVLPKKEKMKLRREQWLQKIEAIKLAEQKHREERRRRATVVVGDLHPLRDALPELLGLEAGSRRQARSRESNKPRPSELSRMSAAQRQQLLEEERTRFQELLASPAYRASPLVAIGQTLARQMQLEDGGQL
In words: pull-down; StrepTactin affinity purification of HASt-C21orf70 from HEK293 lysate (10 mM Tris pH 7.5, 100 mM KCl, 2 mM MgCl2, 1 mM DTT, 0.5% NP-40), beads 60 min at 4°C, elution with 2 mM biotin; eluates immunoblotted.

No constants are given. Whether binding was seen depends on the method and setting. In cells and extracts the contact can be indirect. Some binding calls cover weakened binding; strength is not graded here.

One molecule from publication PMC8354635 can be followed below.

B1: NOC4L (protein, UniProt Q9BVI4 1-516)
chain: MEREPGAAGVRRALGRRLEAVLASRSEANAVFDILAVLQSEDQEEIQEAVRTCSRLFGALLERGELFVGQLPSEEMVMTGSQGATRKYKVWMRHRYHSCCNRLGELLGHPSFQVKELALSALLKFVQLEGAHPLEKSKWEGNYLFPRELFKLVVGGLLSPEEDQSLLLSQFREYLDYDDTRYHTMQAAVDAVARVTGQHPEVPPAFWNNAFTLLSAVSLPRREPTVSSFYVKRAELWDTWKVAHLKEHRRVFQAMWLSFLKHKLPLSLYKKVLLIVHDAILPQLAQPTLMIDFLTRACDLGGALSLLALNGLFILIHKHNLEYPDFYRKLYGLLDPSVFHVKYRARFFHLADLFLSSSHLPAYLVAAFAKRLARLALTAPPEALLMVLPFICNLLRRHPACRVLVHRPHGPELDADPYDPGEEDPAQSRALESSLWELQALQRHYHPEVSKAASVINQALSMPEVSIAPLLELTAYEIFERDLKKKGPEPVPLEFIPAQGLLGRPGELCAQHFTLS
On to B1, for which the binding entry is given as “binds”.
